The other results are listed elsewhere or left out.

Chains of the proteins cited; added tags and fusions are not shown. Lines headed by an entry give the natural chain unless they say otherwise; changes in a name come on top.
UniProt Q9H2J4: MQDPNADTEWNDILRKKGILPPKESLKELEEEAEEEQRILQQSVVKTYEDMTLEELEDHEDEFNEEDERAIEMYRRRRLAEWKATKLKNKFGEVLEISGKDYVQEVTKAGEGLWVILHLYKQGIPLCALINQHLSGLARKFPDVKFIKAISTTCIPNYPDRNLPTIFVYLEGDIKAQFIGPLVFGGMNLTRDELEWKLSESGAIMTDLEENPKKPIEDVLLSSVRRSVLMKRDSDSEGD
UniProt Q86TB9: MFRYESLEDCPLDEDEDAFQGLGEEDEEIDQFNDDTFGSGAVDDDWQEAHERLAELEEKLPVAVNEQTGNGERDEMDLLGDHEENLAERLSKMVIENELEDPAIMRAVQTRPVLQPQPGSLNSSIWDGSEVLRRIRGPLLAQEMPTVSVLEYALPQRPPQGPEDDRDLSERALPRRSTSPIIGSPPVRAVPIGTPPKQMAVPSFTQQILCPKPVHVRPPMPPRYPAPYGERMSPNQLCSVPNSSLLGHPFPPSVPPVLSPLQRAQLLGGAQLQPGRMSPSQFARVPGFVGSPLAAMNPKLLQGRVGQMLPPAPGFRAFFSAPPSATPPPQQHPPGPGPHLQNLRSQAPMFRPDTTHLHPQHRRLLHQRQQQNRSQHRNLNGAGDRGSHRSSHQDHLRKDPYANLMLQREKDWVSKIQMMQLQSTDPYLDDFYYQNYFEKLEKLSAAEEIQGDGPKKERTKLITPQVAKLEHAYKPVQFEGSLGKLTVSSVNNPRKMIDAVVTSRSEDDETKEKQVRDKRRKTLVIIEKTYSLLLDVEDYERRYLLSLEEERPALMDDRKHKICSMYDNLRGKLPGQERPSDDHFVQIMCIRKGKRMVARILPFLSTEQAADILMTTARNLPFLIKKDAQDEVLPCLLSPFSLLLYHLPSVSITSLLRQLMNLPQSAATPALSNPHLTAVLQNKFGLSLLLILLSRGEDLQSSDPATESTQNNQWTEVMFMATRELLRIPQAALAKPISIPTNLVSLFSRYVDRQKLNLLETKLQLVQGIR
UniProt H7BZJ3: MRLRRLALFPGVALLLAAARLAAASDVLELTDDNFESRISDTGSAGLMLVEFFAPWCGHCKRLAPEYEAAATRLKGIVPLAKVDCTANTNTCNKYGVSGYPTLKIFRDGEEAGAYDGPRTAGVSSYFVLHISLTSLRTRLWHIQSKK
UniProt P08237: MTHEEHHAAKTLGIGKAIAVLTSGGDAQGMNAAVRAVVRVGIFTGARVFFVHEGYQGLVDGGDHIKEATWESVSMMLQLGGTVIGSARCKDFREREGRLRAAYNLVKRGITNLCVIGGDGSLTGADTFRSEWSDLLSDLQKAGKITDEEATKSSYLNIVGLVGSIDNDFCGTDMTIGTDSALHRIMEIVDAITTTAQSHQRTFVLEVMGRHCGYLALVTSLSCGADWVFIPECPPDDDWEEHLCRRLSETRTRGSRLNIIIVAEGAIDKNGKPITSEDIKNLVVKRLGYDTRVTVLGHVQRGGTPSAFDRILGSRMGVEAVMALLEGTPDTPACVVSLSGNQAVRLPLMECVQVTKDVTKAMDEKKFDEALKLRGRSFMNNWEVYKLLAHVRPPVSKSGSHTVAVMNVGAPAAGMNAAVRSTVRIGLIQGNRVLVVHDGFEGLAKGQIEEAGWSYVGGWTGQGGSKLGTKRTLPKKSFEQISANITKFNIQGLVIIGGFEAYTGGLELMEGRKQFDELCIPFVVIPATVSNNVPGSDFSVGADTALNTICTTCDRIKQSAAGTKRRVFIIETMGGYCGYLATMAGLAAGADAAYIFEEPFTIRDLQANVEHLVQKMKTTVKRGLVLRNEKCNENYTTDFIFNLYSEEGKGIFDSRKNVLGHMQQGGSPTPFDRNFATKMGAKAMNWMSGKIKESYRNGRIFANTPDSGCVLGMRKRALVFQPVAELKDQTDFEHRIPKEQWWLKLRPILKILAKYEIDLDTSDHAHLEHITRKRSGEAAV
UniProt Q8WUM4: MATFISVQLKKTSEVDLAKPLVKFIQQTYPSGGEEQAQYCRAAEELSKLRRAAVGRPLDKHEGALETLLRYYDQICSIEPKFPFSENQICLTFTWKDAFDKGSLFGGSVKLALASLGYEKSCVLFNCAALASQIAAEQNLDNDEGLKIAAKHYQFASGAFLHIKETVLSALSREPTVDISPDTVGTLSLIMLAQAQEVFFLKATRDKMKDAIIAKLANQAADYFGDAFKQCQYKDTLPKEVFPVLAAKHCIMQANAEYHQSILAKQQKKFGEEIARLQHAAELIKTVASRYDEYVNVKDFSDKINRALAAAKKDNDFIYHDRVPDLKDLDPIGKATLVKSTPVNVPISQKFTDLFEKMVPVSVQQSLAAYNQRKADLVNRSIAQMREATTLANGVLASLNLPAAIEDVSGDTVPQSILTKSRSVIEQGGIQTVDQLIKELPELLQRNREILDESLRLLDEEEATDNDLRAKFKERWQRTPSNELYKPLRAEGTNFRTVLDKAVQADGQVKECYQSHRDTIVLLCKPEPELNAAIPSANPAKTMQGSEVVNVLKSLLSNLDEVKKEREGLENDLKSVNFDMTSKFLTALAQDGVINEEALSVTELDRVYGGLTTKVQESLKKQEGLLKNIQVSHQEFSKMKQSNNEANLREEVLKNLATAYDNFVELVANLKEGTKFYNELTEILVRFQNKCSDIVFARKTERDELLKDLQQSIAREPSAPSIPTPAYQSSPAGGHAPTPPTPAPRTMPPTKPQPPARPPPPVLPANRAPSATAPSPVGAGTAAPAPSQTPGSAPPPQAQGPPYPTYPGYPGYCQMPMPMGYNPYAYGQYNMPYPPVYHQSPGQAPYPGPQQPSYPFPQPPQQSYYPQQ
UniProt Q15366, whole entry, looked up: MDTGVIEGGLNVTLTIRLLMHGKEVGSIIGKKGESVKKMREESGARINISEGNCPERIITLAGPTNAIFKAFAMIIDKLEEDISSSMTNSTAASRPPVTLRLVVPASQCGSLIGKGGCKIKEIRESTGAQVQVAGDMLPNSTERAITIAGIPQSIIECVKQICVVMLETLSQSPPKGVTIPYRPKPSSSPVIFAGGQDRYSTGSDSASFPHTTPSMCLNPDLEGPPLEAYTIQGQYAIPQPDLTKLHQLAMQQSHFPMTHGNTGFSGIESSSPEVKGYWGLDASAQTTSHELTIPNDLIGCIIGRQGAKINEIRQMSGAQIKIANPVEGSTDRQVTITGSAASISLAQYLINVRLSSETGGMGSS
UniProt O15212, whole entry, looked up: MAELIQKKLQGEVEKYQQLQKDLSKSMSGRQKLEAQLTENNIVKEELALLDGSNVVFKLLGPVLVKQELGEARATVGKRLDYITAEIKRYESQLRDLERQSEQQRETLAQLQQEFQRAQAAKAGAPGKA
UniProt O14737: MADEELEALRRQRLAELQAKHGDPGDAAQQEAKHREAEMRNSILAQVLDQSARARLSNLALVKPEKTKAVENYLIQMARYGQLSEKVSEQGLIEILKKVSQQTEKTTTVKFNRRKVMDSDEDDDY
UniProt Q9Y5B6: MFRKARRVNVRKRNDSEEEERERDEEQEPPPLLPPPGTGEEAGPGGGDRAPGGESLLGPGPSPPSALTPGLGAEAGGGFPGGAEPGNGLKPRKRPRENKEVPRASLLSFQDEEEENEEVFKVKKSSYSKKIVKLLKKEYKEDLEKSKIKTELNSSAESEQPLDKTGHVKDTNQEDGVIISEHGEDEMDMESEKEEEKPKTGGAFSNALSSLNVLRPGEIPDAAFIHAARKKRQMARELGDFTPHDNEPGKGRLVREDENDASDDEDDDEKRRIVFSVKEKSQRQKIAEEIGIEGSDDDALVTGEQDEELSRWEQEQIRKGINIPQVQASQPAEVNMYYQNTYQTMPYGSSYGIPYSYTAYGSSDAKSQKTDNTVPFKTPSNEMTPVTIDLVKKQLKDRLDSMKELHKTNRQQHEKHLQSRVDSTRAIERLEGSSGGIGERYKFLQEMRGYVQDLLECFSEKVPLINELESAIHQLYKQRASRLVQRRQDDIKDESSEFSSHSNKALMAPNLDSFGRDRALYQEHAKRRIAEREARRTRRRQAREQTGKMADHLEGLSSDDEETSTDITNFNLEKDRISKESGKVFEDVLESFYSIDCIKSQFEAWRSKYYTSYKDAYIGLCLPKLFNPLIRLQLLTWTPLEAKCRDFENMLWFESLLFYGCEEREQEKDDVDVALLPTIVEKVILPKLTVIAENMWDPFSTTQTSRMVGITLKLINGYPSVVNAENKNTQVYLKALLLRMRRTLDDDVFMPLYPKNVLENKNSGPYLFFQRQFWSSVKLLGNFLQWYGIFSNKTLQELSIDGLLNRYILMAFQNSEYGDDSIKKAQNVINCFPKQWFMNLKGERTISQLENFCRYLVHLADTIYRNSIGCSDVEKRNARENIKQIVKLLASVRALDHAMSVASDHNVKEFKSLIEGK
UniProt Q460N5, whole entry, looked up: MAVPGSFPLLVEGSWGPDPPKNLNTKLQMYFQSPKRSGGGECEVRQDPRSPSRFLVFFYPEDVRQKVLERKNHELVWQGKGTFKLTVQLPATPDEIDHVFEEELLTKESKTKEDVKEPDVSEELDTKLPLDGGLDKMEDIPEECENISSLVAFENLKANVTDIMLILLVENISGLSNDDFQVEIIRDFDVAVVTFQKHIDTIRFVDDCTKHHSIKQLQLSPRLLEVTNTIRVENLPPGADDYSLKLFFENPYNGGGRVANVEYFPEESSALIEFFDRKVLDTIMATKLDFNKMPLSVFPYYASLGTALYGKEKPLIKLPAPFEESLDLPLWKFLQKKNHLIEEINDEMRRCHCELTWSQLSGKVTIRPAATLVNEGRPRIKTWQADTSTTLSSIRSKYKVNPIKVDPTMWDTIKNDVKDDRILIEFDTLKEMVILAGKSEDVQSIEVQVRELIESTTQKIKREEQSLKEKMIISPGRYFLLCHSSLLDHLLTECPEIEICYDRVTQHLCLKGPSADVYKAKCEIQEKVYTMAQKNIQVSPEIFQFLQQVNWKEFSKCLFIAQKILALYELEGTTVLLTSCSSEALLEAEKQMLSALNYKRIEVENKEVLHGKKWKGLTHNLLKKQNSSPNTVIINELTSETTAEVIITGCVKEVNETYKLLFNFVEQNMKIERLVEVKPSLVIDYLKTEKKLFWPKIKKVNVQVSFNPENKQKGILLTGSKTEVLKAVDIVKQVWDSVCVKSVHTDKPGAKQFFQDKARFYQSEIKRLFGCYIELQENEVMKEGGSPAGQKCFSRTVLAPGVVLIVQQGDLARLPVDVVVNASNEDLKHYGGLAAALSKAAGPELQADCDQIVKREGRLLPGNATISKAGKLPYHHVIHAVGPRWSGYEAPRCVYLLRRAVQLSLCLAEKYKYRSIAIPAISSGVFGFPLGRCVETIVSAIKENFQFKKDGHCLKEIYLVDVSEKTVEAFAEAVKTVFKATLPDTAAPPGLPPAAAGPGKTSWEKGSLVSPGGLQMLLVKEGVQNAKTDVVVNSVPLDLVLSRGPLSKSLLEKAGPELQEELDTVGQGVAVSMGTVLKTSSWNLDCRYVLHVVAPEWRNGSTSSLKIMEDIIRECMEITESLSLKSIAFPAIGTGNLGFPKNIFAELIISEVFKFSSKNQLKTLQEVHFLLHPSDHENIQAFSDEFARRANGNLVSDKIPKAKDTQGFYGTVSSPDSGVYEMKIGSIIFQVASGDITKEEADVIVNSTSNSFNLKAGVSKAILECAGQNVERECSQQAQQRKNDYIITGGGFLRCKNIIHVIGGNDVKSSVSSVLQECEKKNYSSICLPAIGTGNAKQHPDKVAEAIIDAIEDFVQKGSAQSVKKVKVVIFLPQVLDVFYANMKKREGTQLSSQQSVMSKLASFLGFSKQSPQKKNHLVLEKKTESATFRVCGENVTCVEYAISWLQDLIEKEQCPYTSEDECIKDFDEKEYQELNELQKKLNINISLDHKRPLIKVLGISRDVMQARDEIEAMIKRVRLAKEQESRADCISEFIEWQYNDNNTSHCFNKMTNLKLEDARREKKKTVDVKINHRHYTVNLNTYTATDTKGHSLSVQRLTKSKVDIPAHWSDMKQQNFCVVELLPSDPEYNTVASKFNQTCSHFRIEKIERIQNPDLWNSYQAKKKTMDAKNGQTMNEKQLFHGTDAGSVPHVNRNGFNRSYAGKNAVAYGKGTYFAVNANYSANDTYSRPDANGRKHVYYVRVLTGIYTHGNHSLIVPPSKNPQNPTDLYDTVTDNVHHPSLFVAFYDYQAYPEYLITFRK
UniProt P61457: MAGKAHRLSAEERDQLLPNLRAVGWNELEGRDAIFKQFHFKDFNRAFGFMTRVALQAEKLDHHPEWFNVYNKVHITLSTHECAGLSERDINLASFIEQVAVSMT
UniProt Q99471, whole entry, looked up: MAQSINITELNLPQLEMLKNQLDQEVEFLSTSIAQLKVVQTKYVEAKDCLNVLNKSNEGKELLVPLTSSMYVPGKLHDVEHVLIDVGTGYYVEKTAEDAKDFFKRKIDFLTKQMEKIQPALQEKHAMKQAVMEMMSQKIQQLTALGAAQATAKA
UniProt Q15121, whole entry, looked up: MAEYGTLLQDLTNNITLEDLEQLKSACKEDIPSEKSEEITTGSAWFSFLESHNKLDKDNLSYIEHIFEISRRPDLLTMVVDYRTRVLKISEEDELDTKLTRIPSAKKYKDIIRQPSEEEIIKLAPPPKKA

Compound in the first test: COC(=O)N[C@@H](C)CNc1nccc(-c2cn(C(C)C)nc2-c2cc(Cl)cc(NS(C)(=O)=O)c2F)n1 [encorafenib]
Briefly: log2 fold change, soluble protein after heating vs DMSO (PISA); higher = thermal stabilisation; K562 lysate, 10 uM; active = over 0.2 and 3.5 SD of the protein, either way, in both replicates (recomputed). In outline:
(§1)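 K562 pellets were dounce-homogenised in PBS pH 7.4 containing 1 mM MgCl2, and the crude extract, at 1 mg/mL protein, was exposed to 10 μM compound for 30 min. Aliquots were heated for 3 min across 48°C-58°C, pooled, brought to 0.5% NP-40 at 4°C and spun at 21,000xg for 90 min, with the supernatant taken as soluble protein. TMTpro 16plex LC-MS/MS with equalised channel sums quantified that protein. Values are log-two fold changes in thermal stability relative to solvent controls, taken from duplicates.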
Turning to PDCL3 (UniProt Q9H2J4), the log2 fold change was inactive: -0.033.

As for PATL1 (UniProt Q86TB9), the log2 fold change was inactive: 0.068.

PDIA3 (UniProt H7BZJ3): the log2 fold change was inactive: 0.066.

As for PARN (UniProt O95453), the log2 fold change is inactive: 0.007.

As to PEX5 isoform 4 (UniProt P50542), the log2 fold change was inactive: 0.025.

Regarding PFKM isoform 3 (UniProt P08237), the log2 fold change was inactive: -0.022.

Take PCTP (UniProt Q9UKL6): the log2 fold change was inactive: 0.008.

For the target PCBP3 (UniProt P57721), the log2 fold change was inactive: -0.006.

Turning to PDCD6IP (UniProt Q8WUM4), the log2 fold change was inactive: -0.1.

Consider PDCL (UniProt Q13371), for which the log2 fold change was inactive: 0.01.

On to PFDN4 (UniProt Q9NQP4), for which the log2 fold change is inactive: 0.021.

In the case of PCBP2 (UniProt H3BRU6), the log2 fold change was inactive: 0.04.

In the case of PDCD6IP isoform 2 (UniProt Q8WUM4), the log2 fold change is inactive: -0.01.

Consider PDIA4 (UniProt P13667), for which the log2 fold change is inactive: -0.011.

As for PDE12 (UniProt Q6L8Q7), the log2 fold change was inactive: -0.021.

For the target PCYT2 isoform 3 (UniProt Q99447), the log2 fold change is inactive: 0.007.

Consider PDE2A (UniProt O00408), for which the log2 fold change was inactive: 0.11.

With PCBP2 isoform 8 (UniProt Q15366), the log2 fold change is inactive: 0.053.

As for PFDN6 (UniProt O15212), the log2 fold change is inactive: -0.002.

In the case of PFDN2 (UniProt Q9UHV9), the log2 fold change was inactive: 0.05.

For the target PDCD10 (UniProt Q9BUL8), the log2 fold change was inactive: -0.019.

PAXIP1 (UniProt Q6ZW49): the log2 fold change is inactive: 0.016.

For the target PDRG1 (UniProt Q9NUG6), the log2 fold change is inactive: 0.03.

With PFN1 (UniProt P07737), the log2 fold change is inactive: -0.005.

Take PDCD5 (UniProt O14737): the log2 fold change was inactive: -0.011.

As to PAXBP1 (UniProt Q9Y5B6), the log2 fold change was inactive: 0.018.

For PARP14 (UniProt Q460N5), the log2 fold change was inactive: 0.021.

Consider PCBD1 (UniProt P61457), for which the log2 fold change was inactive: -0.021.

For the target PFDN5 (UniProt Q99471), the log2 fold change was inactive: 0.

Regarding PCBP2 isoform 3 (UniProt Q15366), the log2 fold change was inactive: 0.049.

Regarding PDCD4 (UniProt Q53EL6), the log2 fold change was inactive: 0.019.

PELO (UniProt Q9BRX2): the log2 fold change was inactive: 0.056.

Take PEA15 isoform 2 (UniProt Q15121): the log2 fold change is inactive: -0.011.

Compound in the next test: COC(=O)[C@H](CCSC)NC(=O)C1=C(C=C(C=C1)NC[C@H](CS)N)C2=CC=CC=C2
The description is as above. Put shortly:
as §1
In the case of PDCL3 (UniProt Q9H2J4), the log2 fold change is inactive: -0.01.

In the case of PATL1 (UniProt Q86TB9), the log2 fold change is inactive: 0.207.

Regarding PDIA3 (UniProt H7BZJ3), the log2 fold change was inactive: -0.036.

For the target PARN (UniProt O95453), the log2 fold change is inactive: -0.006.

Take PEX5 isoform 4 (UniProt P50542): the log2 fold change is inactive: 0.022.

With PFKM isoform 3 (UniProt P08237), the log2 fold change was inactive: -0.017.

Consider PCTP (UniProt Q9UKL6), for which the log2 fold change is inactive: -0.011.

Turning to PCBP3 (UniProt P57721), the log2 fold change is inactive: -0.023.

Consider PDCD6IP (UniProt Q8WUM4), for which the log2 fold change is inactive: 0.143.

For PDCL (UniProt Q13371), the log2 fold change was inactive: 0.011.

For PFDN4 (UniProt Q9NQP4), the log2 fold change is inactive: -0.011.

Turning to PCBP2 (UniProt H3BRU6), the log2 fold change was inactive: 0.017.

Turning to PDCD6IP isoform 2 (UniProt Q8WUM4), the log2 fold change was inactive: 0.188.

In the case of PDIA4 (UniProt P13667), the log2 fold change is inactive: -0.027.

For the target PDE12 (UniProt Q6L8Q7), the log2 fold change is inactive: 0.016.

For PCYT2 isoform 3 (UniProt Q99447), the log2 fold change was inactive: -0.079.

As to PDE2A (UniProt O00408), the log2 fold change was inactive: -0.019.

As to PCBP2 isoform 8 (UniProt Q15366), the log2 fold change is inactive: 0.108.

Turning to PFDN6 (UniProt O15212), the log2 fold change is inactive: -0.062.

Consider PFDN2 (UniProt Q9UHV9), for which the log2 fold change is inactive: -0.025.

On to PDCD10 (UniProt Q9BUL8), for which the log2 fold change was inactive: 0.034.

Turning to PAXIP1 (UniProt Q6ZW49), the log2 fold change is inactive: 0.095.

Regarding PDRG1 (UniProt Q9NUG6), the log2 fold change is inactive: -0.009.

Regarding PFN1 (UniProt P07737), the log2 fold change was inactive: -0.097.

In the case of PDCD5 (UniProt O14737), the log2 fold change was inactive: -0.032.

Consider PAXBP1 (UniProt Q9Y5B6), for which the log2 fold change is active: 0.29.

On to PARP14 (UniProt Q460N5), for which the log2 fold change is inactive: 0.082.

As for PCBD1 (UniProt P61457), the log2 fold change was inactive: 0.

As for PFDN5 (UniProt Q99471), the log2 fold change was inactive: -0.028.

PCBP2 isoform 3 (UniProt Q15366): the log2 fold change is inactive: -0.048.

PDCD4 (UniProt Q53EL6): the log2 fold change is inactive: -0.034.

On to PELO (UniProt Q9BRX2), for which the log2 fold change was inactive: 0.084.

PEA15 isoform 2 (UniProt Q15121): the log2 fold change was inactive: -0.039.

Compound in another test: COc1cc(Nc2ncc3c(n2)-c2ccc(Cl)cc2C(c2c(F)cccc2OC)=NC3)ccc1C(=O)O [alisertib]
The description is as above. Put shortly:
as §1
Regarding PDCL3 (UniProt Q9H2J4), the log2 fold change was inactive: -0.011.

With PATL1 (UniProt Q86TB9), the log2 fold change was inactive: 0.068.

As to PDIA3 (UniProt H7BZJ3), the log2 fold change was inactive: -0.095.

Regarding PARN (UniProt O95453), the log2 fold change was inactive: -0.039.

PEX5 isoform 4 (UniProt P50542): the log2 fold change was inactive: -0.015.

Turning to PFKM isoform 3 (UniProt P08237), the log2 fold change was inactive: -0.036.

Turning to PCTP (UniProt Q9UKL6), the log2 fold change was inactive: -0.02.

With PCBP3 (UniProt P57721), the log2 fold change is inactive: 0.019.

On to PDCD6IP (UniProt Q8WUM4), for which the log2 fold change is inactive: -0.039.

Regarding PDCL (UniProt Q13371), the log2 fold change was inactive: -0.042.

Take PFDN4 (UniProt Q9NQP4): the log2 fold change is inactive: -0.081.

Turning to PCBP2 (UniProt H3BRU6), the log2 fold change is inactive: -0.023.

Turning to PDCD6IP isoform 2 (UniProt Q8WUM4), the log2 fold change was inactive: 0.014.

As to PDIA4 (UniProt P13667), the log2 fold change was inactive: -0.007.

In the case of PDE12 (UniProt Q6L8Q7), the log2 fold change is inactive: -0.043.

PCYT2 isoform 3 (UniProt Q99447): the log2 fold change is inactive: -0.029.

On to PDE2A (UniProt O00408), for which the log2 fold change was inactive: 0.014.

Regarding PCBP2 isoform 8 (UniProt Q15366), the log2 fold change is inactive: -0.013.

For PFDN6 (UniProt O15212), the log2 fold change is inactive: -0.015.

As for PFDN2 (UniProt Q9UHV9), the log2 fold change was inactive: 0.033.

Turning to PDCD10 (UniProt Q9BUL8), the log2 fold change is inactive: 0.01.

As for PAXIP1 (UniProt Q6ZW49), the log2 fold change is inactive: 0.01.

As for PDRG1 (UniProt Q9NUG6), the log2 fold change is inactive: -0.04.

As to PFN1 (UniProt P07737), the log2 fold change is inactive: 0.004.

Regarding PDCD5 (UniProt O14737), the log2 fold change was inactive: 0.034.

Take PAXBP1 (UniProt Q9Y5B6): the log2 fold change was inactive: 0.013.

As to PARP14 (UniProt Q460N5), the log2 fold change was inactive: -0.127.

Turning to PCBD1 (UniProt P61457), the log2 fold change was inactive: 0.062.

For PFDN5 (UniProt Q99471), the log2 fold change was inactive: 0.028.

Take PCBP2 isoform 3 (UniProt Q15366): the log2 fold change was inactive: -0.001.

With PDCD4 (UniProt Q53EL6), the log2 fold change was inactive: -0.005.

Turning to PELO (UniProt Q9BRX2), the log2 fold change was inactive: 0.008.

With PEA15 isoform 2 (UniProt Q15121), the log2 fold change is inactive: -0.014.

The values above are taken from the supplement of paper PMC10849652.
